PubChem BioAssay AID504791 – Drosophila RNAi Screening Center | 2011
Test: 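Genes whose knock-down strengthens or weakens small-RNA reporter silencing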 (primary screen). Cells: Drosophila S2-derived reporter cells. Reagent: long dsRNA against Drosophila genes, about 150-250 ng dsRNA per well (siRNA assay); about 80-120 ng (miRNA assay). Timing: about 5 days (siRNA assay); about 4 days (miRNA assay). Conditions: copper sulfate induction of reporters: 25 µM (siRNA assay); 200 mM stated (miRNA assay), 1-2 days before reading. Measurement: 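Dual luciferase assay: Renilla to firefly signal ratio in each well, scaled to the mean ratio of its plate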. Call rule: 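a well was a first-pass pick when its plate-scaled ratio rose above 1.5 (siRNA assay) or 1.6 (miRNA assay), or dropped below 0.6; a gene counted only if two separate dsRNAs agreed on retest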.
In all, the deposit lists about 23,000 reagents; this is an unselected part of those that have a named target and a result. Over the whole deposit, 199 (0.86%) got an active call. 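Plate-scaled ratios behind the calls are not deposited; printed light signals are raw; many rows marked increased or decreased are still called inactive.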 Not all columns of the deposit are shown. Not given: the direction of the score.

target gene | PubChem SID | stable siRNA reporter change | miRNA reporter change | stable assay Renilla, run 1 (luminescence) | call
CG31883 | SID104182353 | – | reporter ratio raised past the hit cutoff | 6438 | inactive
CG15083 | SID104186306 | – | – | 6207 | inactive
Erasp (Endoplasmic reticulum stress-associated serine protease) | SID104186903 | – | – | 12593 | inactive
CG33108 | SID104201313 | – | – | 8704 | inactive
Osi7 (Osiris 7) | SID104191968 | – | – | 6726 | inactive
RhoL (Rho-like) | SID104196616 | – | – | 6151 | inactive
PIG-H (Phosphatidylinositol glycan anchor biosynthesis class H) | SID104194648 | – | – | 7372 | inactive
CG34232 | SID104185124 | – | – | 5062 | inactive
Hrb27C (Heterogeneous nuclear ribonucleoprotein at 27C) | SID104183139 | – | – | 12672 | inactive
CG4669 | SID104190232 | – | – | 7462 | inactive
mAcon2 (Mitochondrial aconitase 2) | SID104195421 | – | – | 5579 | inactive
JMJD6 (Jumonji domain containing 6) | SID104195579 | – | – | 9236 | inactive
Tmlh (Trimethyllysine hydroxylase) | SID104195355 | – | – | 6674 | inactive
Ant2 (Adenine nucleotide translocase 2) | SID104199122 | – | – | 6792 | inactive
Cyp6a22 (Cytochrome P450 6a22) | SID104187174 | – | – | 9006 | inactive
moody | SID104198307 | – | – | 5880 | inactive
Vps16A (Vacuolar protein sorting 16A) | SID104196214 | – | – | 6455 | inactive
ppk7 (pickpocket 7) | SID104183028 | – | – | 9026 | inactive
Aos1 (Activator of SUMO 1) | SID104193905 | reporter ratio lowered past the hit cutoff | – | 5104 | inactive
CG18537 | SID104186556 | – | – | 7849 | inactive
scrt (scratch) | SID104188528 | – | – | 5487 | inactive
scrt (scratch) | SID104202358 | – | – | 2655 | inactive
ssx | SID104198284 | – | – | 5158 | inactive
bsf (bicoid stability factor) | SID104181827 | – | – | 6110 | inactive
Lsp1alpha (Larval serum protein 1 alpha) | SID104200050 | – | – | 5880 | inactive
Lsp1alpha (Larval serum protein 1 alpha) | SID104203875 | – | reporter ratio raised past the hit cutoff | – | active
Obp50e (Odorant-binding protein 50e) | SID104186226 | – | – | 6835 | inactive
CG9168 | SID104188425 | – | – | 6835 | inactive
tw (twisted) | SID104198329 | – | – | 9266 | inactive
santa-maria | SID104180786 | – | – | 5039 | inactive
santa-maria | SID104181972 | – | – | 41272 | inactive
CG10311 | SID104194020 | – | – | 7443 | inactive
CaMKI (Calcium/calmodulin-dependent protein kinase I) | SID104196954 | – | – | 9189 | inactive
ninaC (neither inactivation nor afterpotential C) | SID104183371 | – | – | 34910 | inactive

Individual results from the entries so far.
bsf (bicoid stability factor) [SID104181827], call → inactive
scrt (scratch) [SID104188528], stable assay Renilla, run 1 (luminescence): 5487
